Assay results from PMC7879569.
These are yes or no findings as the source states them, for the method shown. In cells and extracts the contact can be indirect. Some results given as binding are weak or reduced against the parent protein; the word gives no strength.

Amino acid sequences for entries named in this document (tags omitted).
UniProt Q4VSI4: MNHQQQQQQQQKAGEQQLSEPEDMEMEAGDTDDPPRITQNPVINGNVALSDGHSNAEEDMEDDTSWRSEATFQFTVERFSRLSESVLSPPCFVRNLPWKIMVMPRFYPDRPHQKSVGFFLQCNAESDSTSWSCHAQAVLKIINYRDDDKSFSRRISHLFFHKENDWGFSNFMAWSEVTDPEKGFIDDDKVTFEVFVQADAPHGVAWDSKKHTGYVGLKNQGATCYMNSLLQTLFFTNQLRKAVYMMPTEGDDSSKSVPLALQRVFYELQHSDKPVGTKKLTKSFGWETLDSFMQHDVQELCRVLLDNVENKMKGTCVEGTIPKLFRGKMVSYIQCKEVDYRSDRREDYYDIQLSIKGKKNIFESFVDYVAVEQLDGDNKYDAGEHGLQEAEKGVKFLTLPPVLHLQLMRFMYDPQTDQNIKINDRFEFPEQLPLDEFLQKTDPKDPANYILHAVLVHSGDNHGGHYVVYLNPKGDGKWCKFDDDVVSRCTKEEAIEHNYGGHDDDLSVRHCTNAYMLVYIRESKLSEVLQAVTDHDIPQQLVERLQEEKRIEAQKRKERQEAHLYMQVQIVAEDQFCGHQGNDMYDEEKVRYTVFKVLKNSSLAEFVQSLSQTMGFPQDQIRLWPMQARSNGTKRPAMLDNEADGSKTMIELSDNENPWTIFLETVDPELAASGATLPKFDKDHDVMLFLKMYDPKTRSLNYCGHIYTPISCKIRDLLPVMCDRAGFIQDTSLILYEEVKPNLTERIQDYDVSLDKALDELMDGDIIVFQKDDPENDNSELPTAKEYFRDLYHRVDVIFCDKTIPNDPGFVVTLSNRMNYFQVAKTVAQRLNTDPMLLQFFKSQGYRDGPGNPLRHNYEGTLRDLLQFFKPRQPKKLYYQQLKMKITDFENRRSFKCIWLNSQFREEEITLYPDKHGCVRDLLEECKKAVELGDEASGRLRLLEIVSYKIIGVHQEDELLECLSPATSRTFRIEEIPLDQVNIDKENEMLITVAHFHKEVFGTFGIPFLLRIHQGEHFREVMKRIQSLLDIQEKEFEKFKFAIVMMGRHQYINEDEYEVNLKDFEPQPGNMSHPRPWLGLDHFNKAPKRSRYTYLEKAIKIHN

Target: T1, NAD(P)H oxidase 4 (NOX4) (rat (endogenous in rat chondrocytes)) (UniProt Q924V1)
T1 sequence: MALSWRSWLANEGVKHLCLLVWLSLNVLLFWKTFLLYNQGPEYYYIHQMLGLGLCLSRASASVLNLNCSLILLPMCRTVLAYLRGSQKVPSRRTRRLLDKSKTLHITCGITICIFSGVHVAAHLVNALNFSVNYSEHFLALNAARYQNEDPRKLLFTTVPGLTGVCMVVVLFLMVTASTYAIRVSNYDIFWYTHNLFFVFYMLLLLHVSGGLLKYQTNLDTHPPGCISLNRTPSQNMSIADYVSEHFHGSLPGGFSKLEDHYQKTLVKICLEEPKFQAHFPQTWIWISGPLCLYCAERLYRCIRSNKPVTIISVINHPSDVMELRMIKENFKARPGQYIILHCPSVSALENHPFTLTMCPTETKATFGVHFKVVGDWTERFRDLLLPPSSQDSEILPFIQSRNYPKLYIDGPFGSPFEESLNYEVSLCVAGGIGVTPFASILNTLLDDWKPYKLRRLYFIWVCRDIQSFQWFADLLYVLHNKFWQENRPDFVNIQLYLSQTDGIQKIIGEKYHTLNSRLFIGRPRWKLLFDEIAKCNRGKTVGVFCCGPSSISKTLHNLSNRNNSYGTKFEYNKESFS
Assay: co-IP; rat chondrocyte lysates in RIPA buffer incubated with anti-USP7, anti-NOX4 or normal IgG at 4°C overnight, protein A/G beads 4°C 2 h, three washes with lysis buffer, immunoblot with anti-USP7 and anti-NOX4

binding: binds
Substance: ubiquitin-specific protease 7 (USP7) (from UniProt Q4VSI4 1-1103) (enzyme)
